Experimental data: publication PMC10966517
These are yes or no findings as the source states them, for the method shown. For some assays here: In cells and extracts the contact can be indirect. Some results given as binding are weak or reduced against the parent protein; the word gives no strength.

Amino acid sequences for entries named in this document (tags omitted). A change or cut given only in a name is not applied to a line headed by its entry. Chains listed by the source or under a name are the forms on record and can include a tag or linker.
STK24 (Q9Y6E0-2, form named): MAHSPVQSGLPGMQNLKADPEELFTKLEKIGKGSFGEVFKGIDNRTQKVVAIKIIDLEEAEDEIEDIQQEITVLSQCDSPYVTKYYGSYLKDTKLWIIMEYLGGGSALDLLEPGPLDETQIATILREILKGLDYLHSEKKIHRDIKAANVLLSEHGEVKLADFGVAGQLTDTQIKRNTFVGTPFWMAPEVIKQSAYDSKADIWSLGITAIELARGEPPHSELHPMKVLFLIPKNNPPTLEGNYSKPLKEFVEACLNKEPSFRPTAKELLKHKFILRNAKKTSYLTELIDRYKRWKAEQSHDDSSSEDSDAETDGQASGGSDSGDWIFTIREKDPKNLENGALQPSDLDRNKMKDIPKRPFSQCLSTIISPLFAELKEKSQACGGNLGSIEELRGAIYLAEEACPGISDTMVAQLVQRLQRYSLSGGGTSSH
UniProt P31749: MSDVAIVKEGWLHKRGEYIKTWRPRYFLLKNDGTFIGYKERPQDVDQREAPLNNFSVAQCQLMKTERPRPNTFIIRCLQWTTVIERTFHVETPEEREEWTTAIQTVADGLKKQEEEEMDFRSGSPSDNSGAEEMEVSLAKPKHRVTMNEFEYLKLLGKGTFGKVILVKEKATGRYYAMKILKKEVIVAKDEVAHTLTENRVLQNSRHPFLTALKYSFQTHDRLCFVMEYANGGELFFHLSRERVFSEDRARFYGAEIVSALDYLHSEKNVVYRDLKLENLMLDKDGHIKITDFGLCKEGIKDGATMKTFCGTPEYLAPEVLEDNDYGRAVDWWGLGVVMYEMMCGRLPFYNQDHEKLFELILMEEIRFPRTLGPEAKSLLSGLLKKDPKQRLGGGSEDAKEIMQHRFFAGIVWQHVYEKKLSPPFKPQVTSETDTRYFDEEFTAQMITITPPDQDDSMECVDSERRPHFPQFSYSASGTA
UniProt P31751: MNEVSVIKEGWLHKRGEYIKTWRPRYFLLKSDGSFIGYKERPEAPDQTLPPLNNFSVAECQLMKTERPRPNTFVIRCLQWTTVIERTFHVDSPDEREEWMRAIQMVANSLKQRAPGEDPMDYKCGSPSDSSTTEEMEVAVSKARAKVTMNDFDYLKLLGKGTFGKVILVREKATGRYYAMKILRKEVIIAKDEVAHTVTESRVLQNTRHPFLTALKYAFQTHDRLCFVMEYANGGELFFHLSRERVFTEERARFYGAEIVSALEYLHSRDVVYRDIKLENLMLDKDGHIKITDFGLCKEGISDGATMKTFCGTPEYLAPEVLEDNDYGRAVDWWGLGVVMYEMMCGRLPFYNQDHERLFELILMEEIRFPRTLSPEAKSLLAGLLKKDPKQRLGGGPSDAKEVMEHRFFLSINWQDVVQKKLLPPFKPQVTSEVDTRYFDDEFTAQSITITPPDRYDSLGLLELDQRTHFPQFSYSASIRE
UniProt Q9Y243: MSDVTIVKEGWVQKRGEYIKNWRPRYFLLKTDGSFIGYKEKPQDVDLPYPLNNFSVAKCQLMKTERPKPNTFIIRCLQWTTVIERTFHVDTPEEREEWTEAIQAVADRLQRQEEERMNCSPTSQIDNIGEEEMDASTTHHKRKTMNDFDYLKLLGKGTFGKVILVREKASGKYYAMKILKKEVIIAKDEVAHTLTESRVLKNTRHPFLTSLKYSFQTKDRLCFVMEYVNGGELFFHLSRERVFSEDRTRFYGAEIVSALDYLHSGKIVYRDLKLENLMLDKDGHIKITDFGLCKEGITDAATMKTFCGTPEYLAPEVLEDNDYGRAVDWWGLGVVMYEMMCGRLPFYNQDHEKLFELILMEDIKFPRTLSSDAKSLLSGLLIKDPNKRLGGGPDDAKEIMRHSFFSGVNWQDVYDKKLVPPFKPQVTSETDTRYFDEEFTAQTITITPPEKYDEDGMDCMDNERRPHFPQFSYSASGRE

Experiments:
STK24 = STK24 (UniProt Q9Y6E0); assay: co-IP; HEK293T cells expressing the proteins; anti-Flag immunoprecipitation and immunoblot (Figure 5E); co-IP with AKT1, AKT2 and AKT3 in HEK293T cells (Figure S5L)
HA‐AKT1 = HA‐AKT1 (UniProt P31749); assay: pull-down; 1 µg HA-AKT1 (or HA-EGFP) with 2 µL pre-cleared HA beads in 500 µL reaction medium, then 1 µg Flag-STK24 recombinant protein, 4 °C for 4 h with gentle rotation; immunoblot with anti-HA or anti-Flag; both purified

AKT2 (from UniProt P31751 1-481) (enzyme)
binding (STK24): binds weakly

Flag‐STK24 recombinant protein (from UniProt Q9Y6E0-2 1-431) (enzyme)
binding (HA‐AKT1): binds

AKT1 (from UniProt P31749 1-480) (enzyme)
binding (STK24): binds

AKT3 (from UniProt Q9Y243 1-479) (enzyme)
binding (STK24): no binding

B1: TAK1 (enzyme, UniProt O43318 1-606)
chain: MSTASAASSSSSSSAGEMIEAPSQVLNFEEIDYKEIEVEEVVGRGAFGVVCKAKWRAKDVAIKQIESESERKAFIVELRQLSRVNHPNIVKLYGACLNPVCLVMEYAEGGSLYNVLHGAEPLPYYTAAHAMSWCLQCSQGVAYLHSMQPKALIHRDLKPPNLLLVAGGTVLKICDFGTACDIQTHMTNNKGSAAWMAPEVFEGSNYSEKCDVFSWGIILWEVITRRKPFDEIGGPAFRIMWAVHNGTRPPLIKNLPKPIESLMTRCWSKDPSQRPSMEEIVKIMTHLMRYFPGADEPLQYPCQYSDEGQSNSATSTGSFMDIASTNTSNKSDTNMEQVPATNDTIKRLESKLLKNQAKQQSESGRLSLGASRGSSVESLPPTSEGKRMSADMSEIEARIAATTAYSKPKRGHRKTASFGNILDVPEIVISGNGQPRRRSIQDLTVTGTEPGQVSSRSSSPSVRMITTSGPTSEKPTRSHPWTPDDSTDTNGSDNSIPMAYLTLDHQLQPLAPCPNSKESMAVFEQHCKMAQEYMKVQTEIALLLQRKQELVAELDQDEKDQQNTSRLVQEHKKLLDENKSLSTYYQQCKKQLEVIRSQQQKRQGTS
binding (STK24): binds
